Source: PubChem BioAssay AID1471 (National Center for Advancing Translational Sciences (NCATS), 2008)
Where “and” joins values, the source holds several entries; their conditions need not be identical. Equal values may be shown once. Among all 230,000 compounds or so, about 310 (0.13%) were called active. This list was built around the results that the source calls inconclusive (neither active nor inactive); the mix of calls is not that of the screen. Calls follow the shape of the dose curve; as a rule, active = well fitted activation curve with a large enough effect; inconclusive = small, poorly fitted or top-dose-only effect; inactive = no such curve, though single readings can be large or run the other way. Where the call is inconclusive, the potency comes from a doubtful curve fit.

assay: qHTS Multiplex Assay to Identify Dual Action Probes in a Cell Model of Huntington: Cytoprotection (ATP); conditions: PC12 HTT-Q103 induced, ATP luminescence, 40 h; cytoprotection (ATP increase): at 56.4 µM (top of the series) unless noted; also: nearly all actives have a fitted effect of over 45% in size;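 as to cytoprotection (ATP increase): toxic huntingtin expression switched on by the ecdysone agonist tebufenozide; % of control where 0% means no effect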
Summary of the method: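 PC12 cells with ecdysone-inducible HTT exon 1 Q103-GFP, induced with 100 nM tebufenozide and co-treated with library compounds in a dose series (1536-well, 1500 cells/well). Cytoprotection read as ATP content by ATPlite luminescence.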
Potency is read from the fitted curve at half-maximal effect.

| SMILES | cytoprotection (ATP increase) | Potency |
| --- | --- | --- |
| COc1ccc(NC(=O)N2CC3(CCN(C(=O)c4ccc(OC)cc4)CC3)C2)cc1 | inactive: -9.98% | – |
| Cc1cc(OC(=O)C(c2ccccc2)c2ccccc2)c([N+](=O)[O-])c(=O)[nH]1 | – | inconclusive: 1.26 µM [activator, single point] |
| O=c1[nH]c2ccccc2n1CCCN1CCN(C(c2ccccc2)c2ccccc2)CC1 | – | inconclusive: 0.631 µM [activator, partial curve, poor fit] |
| CC(C)Cc1nnc(NC(=O)CCC(=O)Nc2ccccc2F)s1 | – | inconclusive: 5.62 µM [activator, single point] |
| COc1ccc(/C=N/n2c(N)c(S(=O)(=O)c3cccs3)c3nc4ccccc4nc32)cc1OC | – | inconclusive: 2.82 µM [activator, partial curve] |
| O=C(O)c1ccc(CNC(=O)c2ccccc2NC(=O)c2cccc([N+](=O)[O-])c2)cc1 | – | inconclusive: 2.24 µM [activator, single point] |
| CCCN(CCC)c1ccc(CC(=O)NC(C)Cc2ccccc2)cc1 (stereo not given) | inactive: 21.4% [at 10 µM] | – |
| COC(=O)[C@@]1(Cc2ccc(F)cc2)[C@H]2c3cc(C(=O)N4CCCC4)n(Cc4ccc(C)c(F)c4F)c3C[C@H]2CN1C(=O)c1ccccc1 | – | inconclusive: 2.82 µM [activator, partial curve, poor fit] |
| COCCn1c(=O)cnc2cnc(Nc3ccccc3)nc21 | – | inconclusive: 0.562 µM [activator, full curve, poor fit] |
| COc1ccc(-c2nc(-c3ccccc3)c(NCc3ccccc3)o2)cc1 | inactive: -16.1% | – |
| CCn1ncc(Br)c1C(=O)Nc1nccs1 | inactive: -1.3% [at 10 µM] | – |
| O=C(NCCO)Nc1ccc2nsnc2c1 | – | inconclusive: 3.55 µM [activator, single point] |
| Cc1nnsc1S(=O)(=O)Cc1ccccc1C(F)(F)F | – | inconclusive: 0.112 µM [activator, full curve, poor fit] |
| Cn1cnc([N+](=O)[O-])c1Sc1ncnc2nc[nH]c12 | – | inconclusive: 28.2 µM [activator, single point] and inconclusive: 199 nM [activator, full curve, poor fit] |
| CCOC(=O)Cc1csc(NC(=O)CSc2nnc(C)n2C)n1 | inactive: -16.1% [at 10 µM] | – |
| C=C(N(C)C)[C@]1(C)C[C@H]1[C@H](NC(=O)CNC(=O)OCc1ccccc1)c1ccccc1 | inactive: 11.4% | – |
| Nc1cc(Cl)c(NC2=NCCN2)c(Cl)c1 | – | inconclusive: 0.1 µM [activator, full curve, poor fit] |
| CCN(CC)S(=O)(=O)c1ccc(NC(=O)COC(=O)CCc2cc(OC)c(OC)c(OC)c2)cc1 | inactive: 2.84% [at 1.9 µM] | – |
| O=C1c2ccccc2-c2nnc(-c3ccccc3)cc21 | inactive: -62.9% | – |
| O=C1C2C3C=CC([C@@H]2C(=O)N1C1CCCCC1)[C@H]1C(=O)N(C2CCCCC2)C(=O)C31 (stereo not given in full) | inactive: -8.07% | – |
| O=C(c1cc2cc(C(F)(F)F)ccc2s1)N1CCOCC1 | – | inconclusive: 5.62 µM [activator, single point] |
| O=c1nc2n(c3ccc([N+](=O)[O-])cc13)CCCCC2 | inactive: -25.1% | – |

| SMILES | cytoprotection (ATP increase) | Potency |
| --- | --- | --- |
| CN(C)C(=O)c1ccc(-c2nccc(NCc3cccs3)n2)cc1 | – | inconclusive: 0.282 µM [activator, single point] |
| CC(=O)Nc1cccc([N+](=O)[O-])c1 | – | inconclusive: 0.316 µM [activator, partial curve] |
| COc1ccc(CCN(Cc2nc3ccccc3c(=O)[nH]2)C(=O)c2ccco2)cc1 | – | inconclusive: 1.26 µM [activator, single point] |
| O=C(O)c1ccccc1C(=O)Nc1ccc(S(=O)(=O)Nc2nccs2)cc1 | – | inconclusive: 0.0708 µM [activator, full curve] |
| CCN(CC)C(=O)Nc1ccc(OC[C@H](O)CNC(C)(C)C)c(C(C)=O)c1 | inactive: -4.56% | – |
| Cc1ccc(C2CC(=O)C(C=NCCN3CCN(CC(=O)Nc4cc(C)cc(C)c4)CC3)=C(O)C2)cc1 (stereo not given) | – | inconclusive: 2.51 µM [activator, single point] |
| O=C(CSc1ncnc2c1nnn2Cc1ccc(F)cc1)NC1CCCCC1 | – | inconclusive: 10 µM [activator, partial curve] |
| CC[C@H](CO)Nc1nc(NCc2ccccc2)c2ncn(C(C)C)c2n1 | – | inconclusive: 3.98 µM [activator, single point] |
| COc1ccc(Cl)cc1S(=O)(=O)N1CCN(C(=O)c2cc(OC)c(OC)c(OC)c2)CC1 | inactive: -17% | – |
| Cc1ncc(C[n+]2csc(CCOP(=O)(O)OP(=O)(O)O)c2C)c(N)n1 | – | inconclusive: 31.6 µM [activator, single point] |
| COc1ccc(CN(Cc2cc3ccc(C)cc3[nH]c2=O)Cc2nnnn2C2CCCC2)cc1 | inactive: -24.2% [at 10 µM] | – |
| OCc1ccnc(Cl)c1 | – | inconclusive: 0.631 µM [activator, single point] |
| COc1ccc(N2C(=O)C3C(C2=O)C2C=CC3C23CC3)c([N+](=O)[O-])c1 (stereo not given) | inactive: -23.3% | – |
| c1ccc(CCNc2ncnc3nc[nH]c23)cc1 | inactive: -26.7% [at 0.074 µM] | – |
| CCOCCCNC(=O)C(NC(=O)c1ccc(NC(C)=O)cc1)c1ccccc1 (stereo not given) | – | inconclusive: 0.447 µM [activator, partial curve] |
| O=C(NNC1=C(C(=O)C(F)(F)F)CCC1)c1ccccc1Cl | inactive: -79.4% | – |
| C[C@]12CC[C@@H]3c4ccc(OC(=O)c5ccccc5)cc4CC[C@H]3[C@@H]1CC[C@@H]2O | – | inconclusive: 0.1 µM [activator, full curve, poor fit] |
| CC1(OC(=O)c2cccs2)C(=O)C=C2C=C(c3ccsc3)OC=C2C1=O (stereo not given) | – | inconclusive: 4.47 µM [activator, full curve, poor fit] |
| Cc1cc(O)c(C(C[N+](=O)[O-])c2ccc(Cl)cc2Cl)c(=O)o1 (stereo not given) | – | inconclusive: 31.6 µM [activator, single point] |
| Cc1ccc(CSCC(=O)NCCCN2CCOCC2)cc1 | inactive: -0.21% | – |
| S=C(Nc1cccc(Cl)c1)N1CCOCC1 | – | inconclusive: 3.16 µM [activator, single point] |
| O=C(O)COc1c(-c2ccco2)oc2ccccc2c1=O | – | inconclusive: 0.1 µM [activator, full curve, poor fit] |

Quoted at random: five records from the list.

| SMILES | cytoprotection (ATP increase) | Potency |
| --- | --- | --- |
| CCN(CC)C(=O)Nc1ccc(OC[C@H](O)CNC(C)(C)C)c(C(C)=O)c1 | inactive: -4.56% | – |
| CCCN(CCC)c1ccc(CC(=O)NC(C)Cc2ccccc2)cc1 (stereo not given) | inactive: 21.4% [at 10 µM] | – |
| Cc1ccc(C2CC(=O)C(C=NCCN3CCN(CC(=O)Nc4cc(C)cc(C)c4)CC3)=C(O)C2)cc1 (stereo not given) | – | inconclusive: 2.51 µM [activator, single point] |
| COc1ccc(Cl)cc1S(=O)(=O)N1CCN(C(=O)c2cc(OC)c(OC)c(OC)c2)CC1 | inactive: -17% | – |
| CCOC(=O)Cc1csc(NC(=O)CSc2nnc(C)n2C)n1 | inactive: -16.1% [at 10 µM] | – |

The results go on.

| SMILES | cytoprotection (ATP increase) | Potency |
| --- | --- | --- |
| Cn1ncc2c(Nc3ccc(O)cc3)nc(Cl)nc21 | inactive: 12.3% [at 10 µM] | – |
| CC(OC(=O)c1cc2sccc2n1C)C(=O)NCC1CCCO1 (stereo not given) | inactive: -16.5% [at 10 µM] | – |
| COCCNc1oc(-c2ccccc2Cl)nc1C#N | inactive: -18.8% | – |
| CCOc1ccc2c(c1)C(N(CCN1CCOCC1)C(=O)Nc1ccc(OC)cc1OC)CC(C)(C)O2 (stereo not given) | – | inconclusive: 0.631 µM [activator, single point] |
| CC(C)C[C@@H](CC(=O)N[C@@H](CCCN)CC(=O)N[C@@H]1CCNC[C@H]1C(=O)N[C@H](CC(=O)N[C@@H](CCC(=O)O)CC(=O)O)CC(C)C)NC(=O)[C@@H]1CNCC[C@H]1N | – | inconclusive: 0.126 µM [activator, partial curve, poor fit] |
| COc1ccc(F)cc1C(=O)C1CCCN(Cc2c(C)n(C)n(-c3ccccc3)c2=O)C1 (stereo not given) | – | inconclusive: 5.62 µM [activator, single point] |
| COc1cc(C(Nc2ccccn2)c2ccc3ccc(C)nc3c2O)cc(OC)c1O (stereo not given) | – | inconclusive: 0.251 µM [activator, partial curve, poor fit] |
| Cc1noc(C)c1S(=O)(=O)N1CCCC(C(=O)Nc2ccc(Cl)cn2)C1 (stereo not given) | – | inconclusive: 0.891 µM [activator, single point] |
| O=Cc1cn(CCC(=O)O)nc1-c1cccc(Cl)c1 | – | inconclusive: 2 µM [activator, single point] |
| C[C@@H]1C=CCC(=O)OC[C@H](C)C(=O)OC[C@H]2O[C@H]1C=C[C@H]2O | – | inconclusive: 0.0891 µM [activator, partial curve, poor fit] |
| CS(=O)(=O)c1ccc(-c2cc(Br)sc2-c2ccc(F)cc2)cc1 | – | inconclusive: 39.8 µM [activator, single point] |
| CCc1cc2c(=O)c(-c3cnn(-c4ccccc4)c3)c(C)oc2cc1OCC(=O)Nc1cccc(C)c1 | – | inconclusive: 5.62 µM [activator, single point] |
| N[C@H](C(=O)O)c1ccc(C(=O)O)cc1 | – | inconclusive: 1.26 µM [activator, partial curve] |
| CC(=O)CSc1ccc(-c2nc3cc(C)c(C)cc3[nH]2)cn1 | – | inconclusive: 3.16 µM [activator, single point] |
| NS(=O)(=O)c1ccc(N=Nc2c(O)ccc3ccccc23)cc1 | – | inconclusive: 2.51 µM [activator, partial curve] |
| COc1ccc2[nH]cc(CCNc3ccnc(-c4cccnc4)n3)c2c1 | – | inconclusive: 25.1 µM [activator, partial curve, poor fit] |
| CCc1ccc(OCC(=O)c2c(O)c3ccccc3oc2=O)cc1 | inactive: -55% | – |
| COC(=O)N/N=C/c1ccc(-c2ccc(C)c(Cl)c2)o1 | – | inconclusive: 0.398 µM [activator, partial curve] |
| COc1cccc(-n2cnc3scc(-c4cccs4)c3c2=O)c1 | – | inconclusive: 12.6 µM [activator, partial curve] |
| CCOP(=O)(O)c1cccc(OCCOCCOc2cccc(P(=O)(O)OCC)c2)c1 | – | inconclusive: 1.26 µM [activator, single point] |
| CC(C)(C)c1nnc2sc(SCC(=O)N3CCc4ccccc43)nn2c1=O | – | inconclusive: 10 µM [activator, single point] |
